From the supplement of paper PMC11348887
Structures can show the parent of a compound that is named as a salt. Some of the results follow. Small differences around the control level are noise.

The compounds below were run on hPSC-derived cortical neurons (WA09) (assay: nucleus area z-score vs screen plate; higher = larger nuclei (more mature)). Settings: 5 µM; treatment: days 7-14 after plating, readout day 21.

| SMILES | nucleus area z-score |
| --- | --- |
| CC(=O)OC1CN2CCC1CC2 (stereo not given) [Aceclidine HCl] | -0.806 |
| COc1ccc2c(c1)/C(=C/c1cnc[nH]1)C(=O)N2 | -1.14 |
| C=CCN1CC[C@]23c4c5ccc(O)c4O[C@H]2C(=O)CC[C@@]3(O)[C@H]1C5 [Naloxone HCl Dihydrate] | 0.38 |
| C[C@]12N[C@H](Cc3ccccc31)c1ccccc12 [MK-801 (Dizocilpine)] | 0.697 |
| CCC(COC(=O)c1cc(OC)c(OC)c(OC)c1)(c1ccccc1)N(C)C (stereo not given) [Trimebutine] | -0.00116 |
| CC1(C)CC(O)CC(C)(C)N1[O] [Tempol] | -0.0821 |
| O=C(CC1NCCCC1O)Cn1cnc2cc(Br)c(Cl)cc2c1=O (stereo not given) [Halofuginone] | -17.4 |
| O=C(O[C@H]1C[N+]2(CCCOc3ccccc3)CCC1CC2)C(O)(c1cccs1)c1cccs1 [Aclidinium Bromide] | 0.0195 |
| COc1cc(C)[nH]c(=O)c1CNC(=O)c1c(C)n([C@H](C)C2CCOCC2)c2ccccc12 | 0.727 |
| Nc1ncnc2c1ccn2[C@@H]1O[C@H](CO)[C@@H](O)[C@H]1O [Tubercidin] | -19.2 |
| C/C=C(\C)C(=O)N[C@@H](c1ccccc1)[C@@H](O)C(=O)O[C@H]1C[C@@]2(O)[C@@H](OC(=O)c3ccccc3)[C@@H]3[C@]4(OC(C)=O)CO[C@@H]4C[C@H](O)[C@@]3(C)C(=O)[C@H](OC(C)=O)C(=C1C)C2(C)C [Cephalomannine] | -2.39 |
| COc1ccc(C(=O)N2CCCC2=O)cc1 [Aniracetam] | 0.944 |
| NC(=O)c1cc(N2CC2)c([N+](=O)[O-])cc1[N+](=O)[O-] | 0.27 |
| C[C@H]1CNCCc2ccc(Cl)cc21 [Lorcaserin HCl] | 0.595 |
| C#C[C@]1(O)C=C[C@H]2[C@@H]3CCC4=CC(=O)CC[C@@H]4[C@H]3CC[C@@]21CC [Gestodene] | 0.119 |
| C=C[C@H]1CN2CC[C@H]1C[C@H]2[C@H](O)c1ccnc2ccccc12 [Cinchonidine] | 0.177 |
| COC1=C[C@@H]2[C@@H]3Cc4ccc(OC)c(O)c4[C@]2(CCN3C)CC1=O [Sinomenine] | -0.158 |

| SMILES | nucleus area z-score |
| --- | --- |
| COc1cc2c(cc1OC)C1CC(=O)C(CC(C)C)CN1CC2 (stereo not given) [Tetrabenazine (Xenazine)] | 2.44 |
| Cc1cccc([C@H](C)c2c[nH]cn2)c1C [Dexmedetomidine] | 0.17 |
| [O-][n+]1ccccc1[S-].[O-][n+]1ccccc1[S-].[Zn+2] [Zinc Pyrithione] | -3.8 |
| Cn1c(CCCC(=O)O)nc2cc(N(CCCl)CCCl)ccc21 [Bendamustine HCl] | -0.344 |
| C=C1C[C@@H]2[C@H](CC[C@]3(C)C(=O)CC[C@@H]23)[C@@]2(C)C=CC(=O)C=C12 [Exemestane] | 2.35 |
| Cc1cccc(Cc2c[nH]cn2)c1C [Detomidine HCl] | -0.747 |
| CC(C)N(CCC(C(N)=O)(c1ccccc1)c1ccccn1)C(C)C (stereo not given) [Disopyramide Phosphate] | 0.811 |
| NCC(O)c1ccc(O)cc1 (stereo not given) [(+_-)-Octopamine HCl] | 0.121 |
| CCC1(C)CC(=O)NC(=O)C1 [Bemegride] | 0.124 |
| N#C[C@H](O[C@@H]1O[C@H](C(=O)O)[C@@H](O)[C@H](O)[C@H]1O)c1ccccc1 [Laetrile] | -0.282 |
| CC(C)=CCC[C@]1(C)C=Cc2c(O)c3c(c(CC=C(C)C)c2O1)O[C@]12C(=C[C@@H]4C[C@H]1C(C)(C)O[C@@]2(C/C=C(/C)C(=O)O)C4=O)C3=O [Gambogic Acid] | -18.1 |
| CCOC(=O)c1cncn1[C@H](C)c1ccccc1 [Etomidate] | 0.926 |
| Cc1ccc(-n2nccn2)c(C(=O)N2CCN(c3nc4cc(Cl)ccc4o3)CC[C@H]2C)c1 [Suvorexant (MK-4305)] | 0.703 |
| CC[C@@]1(O)C(=O)OCc2c1cc1n(c2=O)Cc2cc3ccccc3nc2-1 [Camptothecin] | 0.154 |
| CC(=O)OC12COC1CC(O)C1(C)C(=O)C(O)C3=C(C)C(O)CC(O)(C(OC(=O)c4ccccc4)C21)C3(C)C (stereo not given) [10-Deacetylbaccatin-III] | 0.015 |
| COc1ccc(CN2CCNCC2)c(OC)c1OC [Trimetazidine dihydrochloride] | 0.669 |
| CC(=O)OC(C)(C)/C=C/C(=O)[C@](C)(O)[C@H]1[C@H](O)C[C@@]2(C)[C@@H]3CC=C4[C@H](C[C@H](O)C(=O)C4(C)C)[C@]3(C)C(=O)C[C@]12C [Cucurbitacin B] | -11.7 |

Part of the list above, as tab-separated lines:
SMILES	nucleus area z-score
CCOC(=O)c1cncn1[C@H](C)c1ccccc1 [Etomidate]	0.926
CC(=O)OC(C)(C)/C=C/C(=O)[C@](C)(O)[C@H]1[C@H](O)C[C@@]2(C)[C@@H]3CC=C4[C@H](C[C@H](O)C(=O)C4(C)C)[C@]3(C)C(=O)C[C@]12C [Cucurbitacin B]	-11.7
